Test results taken from PubChem BioAssay AID504444 (National Center for Advancing Translational Sciences (NCATS), 2011).
Values joined by “and” are separate entries in the source; they are usually repeats but may differ in a detail not shown here. Identical values can stand only once. The campaign covered roughly 360,000 compounds. About 7,500 (2.1%) were called active. The shares of active, inactive and inconclusive entries below differ from those in the screen. The call rests on the fitted dose curve; in most records, active means well fitted inhibition curve with a large enough effect; inconclusive means small, poorly fitted or top-dose-only effect, or effect the other way; inactive means flat fitted curve, though single readings scatter. A potency beside an inconclusive call is a rough fit, not a confirmed value.

test: Nrf2 qHTS screen for inhibitors; details: A549 ARE-Fluc reporter, luciferase luminescence, 18-24 h; activity change, negative = inhibition: at 46 µM (top of the series); further: nearly all actives have a fitted effect of over 60% in size
How it was run: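 Reporter: ARE-Fluc in A549. Exposure: 18-24 h, 37 °C, 5% CO2, 5% FBS OPTI-MEM. Readouts: fluorescent cytotoxicity (CellTiter-Fluor), then luminescent Nrf2 signal after BugLite.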
On the % scale 0 is the no-effect control and ±100 the full control effect; potency means the concentration at half of the fitted maximal effect.

Q: For `CC1CCCN(S(=O)(=O)c2ccc(NC(=O)C3CCN(C(=O)C(C)(C)C)CC3)cc2)C1` (stereo not drawn), which Potency is on record?
A: inconclusive: 14.6 µM [falling, partial curve, poor fit]

Q: Which Potency does the source give for `CCN(CC(=O)Nc1cccc(OC)c1)c1ncnc2sc(C)c(C)c12` here?
A: active: 20.6 µM

Q: For `Cc1ccccc1NC(=O)Nc1nnc(N(C)Cc2ccccc2)s1`, which “activity change, negative = inhibition” value is on record?
A: inactive: 14.3%

Q: For `Oc1ccccc1-c1nc(/C=C/c2ccc(F)cc2)no1`, which Potency is on record?
A: inconclusive: 23.1 µM [activator, single point]

Q: For `Cc1c(Cl)cccc1N1CC(c2nc3ccccc3n2Cc2ccccc2F)CC1=O` (stereo not drawn), which Potency is on record?
A: inconclusive: 29.1 µM [falling, single point]

Q: Which Potency does the source give for `COc1cc(C(=O)OC(C)C(=O)NCC2CCCCC2)cc(NC(=O)c2ccco2)c1OC` (stereo not drawn) here?
A: inconclusive: 20.6 µM [falling, single point]

Q: For `O=C(Nc1cc(Cl)ccc1C(=O)O)c1ccc(CN2C(=O)c3ccccc3C2=O)cc1`, which “activity change, negative = inhibition” value is on record?
A: inactive: -2.23%

Q: With `Cc1ccc(OCCn2c(COc3ccc(Cl)cc3)nc3ccccc32)cc1` as the compound, how does the Potency read?
A: inconclusive: 29.1 µM [falling, single point]

Q: With `COc1ccc(-c2noc(-c3ccccc3C(=O)NCc3ccco3)n2)cc1OC` as the compound, how does the “activity change, negative = inhibition” value read?
A: inactive: 21.5%

Q: For `CCOc1cccc(C(=O)NC(=S)Nc2cccc(NC(=O)c3ccccc3Cl)c2)c1`, which “activity change, negative = inhibition” value is on record?
A: inactive: -16.1%

Q: With `COc1ccc(CC2(CO)CCN(Cc3ccc(NC(C)=O)cc3)CC2)cc1` as the compound, how does the Potency read?
A: inconclusive: 4.61 µM [falling, partial curve, poor fit]

Q: Which Potency does the source give for `COc1ccc(C(C(=O)NC2CCCCC2)N(C(=O)Cc2c[nH]c3ccccc23)c2ccccc2C)cc1OC` (stereo not drawn) here?
A: inconclusive: 29.1 µM [falling, single point]

Q: Which “activity change, negative = inhibition” value does the source give for `O=C(NC(=S)Nc1ccc(Cl)cc1)c1ccccc1` here?
A: inactive: 15%

Q: For `CCOc1cc(CNC(C)(C)CO)cc(Br)c1OCc1ccc(Cl)cc1Cl`, which Potency is on record?
A: inconclusive: 20.6 µM [falling, single point]

Q: Which Potency does the source give for `CC1CCN(S(=O)(=O)c2ccc3c(c2)N(CC(=O)Nc2ccc(F)c(Cl)c2)C(=O)CO3)CC1` here?
A: inconclusive: 29.1 µM [falling, single point]

Q: With `Cc1ccc(C(=O)Nc2cccc(C(F)(F)F)c2)cc1Nc1ccccn1` as the compound, how does the Potency read?
A: active: 20.6 µM

Q: With `C=CCOc1nc2c(c(=O)n(C)c(=O)n2C)n1Cc1c(Cl)cccc1Cl` as the compound, how does the Potency read?
A: inconclusive: 32.6 µM [falling, single point]

Q: Which Potency does the source give for `COc1cc(/C=N/NC(=O)c2ccc(N3CCCC3=O)cc2)ccc1O` here?
A: inconclusive: 18.4 µM [falling, partial curve, poor fit]

Q: With `COc1ccc(NC(=O)c2oc3ccccc3c2NC(=O)Cc2ccc(F)cc2)c(OC)c1` as the compound, how does the “activity change, negative = inhibition” value read?
A: inactive: 4.58%

Q: Which “activity change, negative = inhibition” value does the source give for `CCc1ccc(CN(C)Cc2nc(Cc3ccccc3)no2)nc1` here?
A: inactive: 0%

Q: With `Cc1cc(NC(=S)NC(=O)CC(C)C)ccc1Br` as the compound, how does the Potency read?
A: inconclusive: 2.91 µM [activator, partial curve, poor fit]

Q: For `CC(=O)Oc1c(C)c(OC(C)=O)c2c(c1C(C)=O)OC1CC(=O)C(C(C)=O)=C(O)C21C` (stereo not drawn), which Potency is on record?
A: inconclusive: 1.64 µM [falling, partial curve, poor fit]

Q: With `CC(/C=N/NC(=O)c1nnn(-c2nonc2N)c1C(C)C)=C\c1ccccc1` as the compound, how does the Potency read?
A: inconclusive: 20.6 µM [falling, single point]

Q: For `O=C(c1ccc(CN2CCc3ccccc3C2)cc1)N1CCN(c2ccc(F)cc2)CC1`, which Potency is on record?
A: inconclusive: 29.1 µM [falling, single point]

Q: For `COc1cccc(-c2cc(C(=O)Nc3cccnc3Cl)no2)c1`, which Potency is on record?
A: inactive

Q: For `CNS(=O)(=O)c1cccc(C(=O)OCC(=O)c2ccc3c(c2)OCCO3)c1`, which Potency is on record?
A: active: 20.6 µM

Q: For `Cc1cc(-c2onc(C)c2C(=O)N/N=C/c2ccccc2)no1`, which “activity change, negative = inhibition” value is on record?
A: inactive: -27.6%

Q: With `COc1ccc(N2C(=O)CCSC23C(=O)N(Cc2ccc(F)cc2)c2ccccc23)cc1Cl` (stereo not drawn) as the compound, how does the “activity change, negative = inhibition” value read?
A: inactive: -7.87%

Q: With `N#Cc1cc2c(nc1SCC(=O)NCc1ccc3c(c1)OCO3)CCCCC2` as the compound, how does the “activity change, negative = inhibition” value read?
A: inactive: 7.24%

Q: Which Potency does the source give for `COc1cccc(NC(=O)N2CCC(CN3CCOCC3)CC2)c1` here?
A: inconclusive: 13 µM [activator, partial curve, poor fit]

Q: With `Cc1ccc(O)c(-c2cc(C(=O)Nc3ccc(S(=O)(=O)N4CC(C)OC(C)C4)cc3)[nH]n2)c1` (stereo not drawn) as the compound, how does the Potency read?
A: inconclusive: 29.1 µM [falling, single point]

Q: Which “activity change, negative = inhibition” value does the source give for `COCCCNC(=S)Nc1cc2oc3ccccc3c2cc1OC` here?
A: inactive: -13.6%

Q: Which “activity change, negative = inhibition” value does the source give for `CSc1ccc(/C=C/C(=O)OCC(=O)N2CCN(S(=O)(=O)c3ccc(C)cc3C)CC2)cc1` here?
A: inactive: 4.52%

Q: For `COc1cccc(C(c2c(N)[nH]c(=S)[nH]c2=O)c2c(N)[nH]c(=S)[nH]c2=O)c1`, which Potency is on record?
A: inconclusive: 0.411 µM [falling, partial curve, poor fit]

Q: For `Cc1ccc(-n2ncc3c2CCCC3NC(=O)c2ccoc2)cc1C` (stereo not drawn), which Potency is on record?
A: inconclusive: 18.4 µM [falling, partial curve]

Q: For `Cc1cccc(N2CCN(S(=O)(=O)c3c(C)nc4scc(C)n4c3=O)CC2C)c1` (stereo not drawn), which Potency is on record?
A: inconclusive: 25.9 µM [falling, partial curve, poor fit] and inconclusive: 23.1 µM [falling, partial curve, poor fit]

Q: Which Potency does the source give for `COc1ccc(CN2CCN(C(=O)c3ccc(S(=O)(=O)N4CCCCCC4)cc3)CC2)cc1F` here?
A: active: 9.2 µM

Q: For `CC1CCC(NC(=O)C2CCN(c3nc4ccccc4s3)CC2)CC1` (stereo not drawn), which Potency is on record?
A: inconclusive: 9.2 µM [falling, partial curve]

Q: Which Potency does the source give for `COc1ccc(-c2noc(C3CC(=O)N(c4ccc5c(c4)OCCO5)C3)n2)c(OC)c1` (stereo not drawn) here?
A: inconclusive: 0.82 µM [falling, full curve, poor fit]

Q: With `O=C1CC(N2CCN(c3nc4ccccc4s3)CC2)C(=O)N1Cc1cccs1` (stereo not drawn) as the compound, how does the Potency read?
A: inconclusive: 23.1 µM [falling, single point]

Q: Which “activity change, negative = inhibition” value does the source give for `NS(=O)(=O)c1ccc(CCNC(=O)CNC(=O)Cc2ccccc2)cc1` here?
A: inactive: 4.33%

Q: For `COc1cc(OC)cc(C(=O)NCCCCc2ccccc2)c1`, which Potency is on record?
A: inconclusive: 10.3 µM [falling, partial curve, poor fit]

Q: For `S=C1NC(c2ccccc2)=NCN1c1ccccc1`, which Potency is on record?
A: inconclusive: 8.2 µM [activator, partial curve, poor fit]
